Where two headings read alike, the source gives them in different places.
Assays:
[1] = Hardening activity of the photoinitiators: maximum conveyor belt speed giving a nail-hard, scratch-resistant surface (80 μm film, Hg high-pressure lamp); conditions: for Maximum conveyor belt speed, in inert gas / Maximum conveyor belt speed, in air: 3 parts initiator
[2] = Temperature variation during photopolymerization of unsaturated polyester resin A; conditions: 0.35% photoinitiator
[3] = Yellowing of photopolymerized finishes on white photographic paper (yellowness index, ASTM D 1925)
[4] = Temperature variation during photopolymerization of unsaturated polyester resin B; conditions: 0.35% photoinitiator
[5] = Light-hardening of unsaturated polyester resin under fluorescent lamps, Konig pendulum hardness; conditions: after an exposure time of 4 minutes
[6] = concentration employed 3%, inert gas, 72 m/min

Row | Compound | Maximum conveyor belt speed, in inert gas [1] | Maximum temperature reached by sample, Tmax [2] | Maximum conveyor belt speed, in air; 3% of N-phenylglycine added to the mixture [1] | Maximum conveyor belt speed, in air [1] | further results
1 | Cc1ccccc1C(=O)P(=O)(c1ccccc1)c1ccccc1 [2-Methylbenzoyl-diphenylphosphine oxide, 2-methylbenzoyldiphenylphosphine oxide] | 70 m/min |  |  |  | 
2 | CC(C)(C)c1ccc(C(=O)P(=O)(c2ccccc2)c2ccccc2)cc1 [4-tert.-Butyl-benzoyldiphenylphosphine oxide] |  | 120 °C |  |  | 
3 | COC(OC)(C(=O)c1ccccc1)c1ccccc1 [Benzil dimethylketal, reference compound] |  |  |  |  | Yellowing measured in terms of the yellowness index [3, 6]: 9.20
4 | CCOP(=O)(OCC)C(=O)C(C)(C)C [Diethyl pivaloylphosphonate, reference compound] | 10 m/min |  |  |  | 
5 | CCCCC(CC)C(=O)P(=O)(OC)c1ccccc1 (stereo not shown) [Methyl 2-ethylhexanoyl-phenylphosphinate, Methyl 2-ethyl-hexanoyl-phenylphosphinate] | 40 m/min |  |  |  | 
6 | COP(=O)(C(=O)C(C)(C)C)c1ccccc1 (stereo not shown) [Methyl pivaloylphenylphosphinate] | 150 m/min | 106 °C | 10 m/min | 10 m/min | Yellowing measured in terms of the yellowness index [3]: -2.34; Hardening time (time between 25° C. and Tmax) [4]: 13 min; Maximum temperature reached by sample, Tmax [4]: 112 °C
7 | COP(=O)(C(=O)c1ccc(C)cc1)c1ccccc1 (stereo not shown) [Methyl toluyl-phenylphosphinate, methyl 4-methylbenzoyl-phenylphosphinate] | 70 m/min |  | 25 m/min | 10 m/min | 
8 | CC(C)(C)C(=O)P(=O)(c1ccccc1)c1ccccc1 [Pivaloyl-diphenylphosphine oxide, pivaloyldiphenylphosphine oxide] | 150 m/min |  | 25 m/min | 11 m/min | Yellowing measured in terms of the yellowness index [3, 6]: -3.33; Film workability after hardening [5]: can be rubbed down and buffed; Konig pendulum hardness ([5]; 1.5 parts initiator to 97 parts resin): 76 s
9 | O=C(c1ccc(C(=O)P(=O)(c2ccccc2)c2ccccc2)cc1)P(=O)(c1ccccc1)c1ccccc1 [terephthaloyl-bis-diphenylphosphine oxide] |  | 109 °C |  |  | 

— US4324744A, “Acylphosphine oxide compounds” (BASF Aktiengesellschaft, priority 1978, dated 1982)
